In data set [1] the target is GST-STAT (Marsupenaeus japonicus (kuruma shrimp)) (UniProt D0VYJ1). Nature of the data set: EMSA. Conditions: 2 ug protein, 20 fmol Dig-probe, Beyotime EMSA binding buffer (from 5x; composition and pH not stated), 20 min with probe, room temperature (stated for competition); recombinant protein; protein details: GST. (In general: A gel shift assay detects complexes by their altered migration in electrophoresis.)

Protein sequences, listed by entry. Tags and fused reporters are not part of them.
UniProt D0VYJ1, entry or part of it: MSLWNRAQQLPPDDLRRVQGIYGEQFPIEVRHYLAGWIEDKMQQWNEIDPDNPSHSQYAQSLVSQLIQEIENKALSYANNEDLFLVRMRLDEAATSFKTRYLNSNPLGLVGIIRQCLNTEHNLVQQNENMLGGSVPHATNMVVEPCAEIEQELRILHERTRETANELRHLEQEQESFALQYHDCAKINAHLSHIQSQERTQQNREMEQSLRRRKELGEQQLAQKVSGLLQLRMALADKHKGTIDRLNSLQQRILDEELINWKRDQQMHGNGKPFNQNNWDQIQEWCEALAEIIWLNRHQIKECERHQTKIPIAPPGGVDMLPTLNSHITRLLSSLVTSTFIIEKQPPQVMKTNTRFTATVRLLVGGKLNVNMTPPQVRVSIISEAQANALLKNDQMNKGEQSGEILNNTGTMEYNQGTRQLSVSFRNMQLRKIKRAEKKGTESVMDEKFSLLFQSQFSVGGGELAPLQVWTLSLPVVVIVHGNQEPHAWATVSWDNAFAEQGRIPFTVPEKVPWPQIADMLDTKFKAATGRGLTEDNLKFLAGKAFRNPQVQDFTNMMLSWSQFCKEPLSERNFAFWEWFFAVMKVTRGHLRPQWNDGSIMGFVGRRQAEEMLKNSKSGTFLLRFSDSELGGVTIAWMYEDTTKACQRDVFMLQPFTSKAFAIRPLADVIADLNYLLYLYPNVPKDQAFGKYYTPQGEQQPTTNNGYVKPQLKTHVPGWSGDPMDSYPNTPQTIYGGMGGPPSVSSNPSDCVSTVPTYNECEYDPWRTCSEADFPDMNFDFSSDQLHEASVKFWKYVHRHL

Data set [2] has as its target native STAT, untreated shrimp (Marsupenaeus japonicus (kuruma shrimp)) (UniProt D0VYJ1). As to the kind of experiment: EMSA. Conditions: STAT from untreated shrimp, compared with LPS-injected; 2 ug protein, 20 fmol Dig-probe, Beyotime EMSA binding buffer (from 5x; composition and pH not stated), 20 min with probe, room temperature (stated for competition); native protein.

The exact form of at least one protein or probe is not confirmed. For some assays here: Weaker means in comparison with the reference protein, sequence or condition of that experiment. For some assays here: At least one verdict rests on a figure or table, not on a statement of the authors.

As for “GCGTAAGGTTTTCTTGGAATA (double strand) [CruI-1 promoter STAT probe]”, the binding result is on record as “binds” in data set [1] and “binds more weakly” in data set [2].

Source of the values: article PMC5645147, “Binding of a C-type lectin’s coiled-coil domain to the Domeless receptor directly activates the JAK/STAT pathway in the shrimp immune response to bacterial infection”.
